Laboratory results from patent US20090155228A1, “COMPOUNDS, KITS AND METHODS FOR CONFERRING CYTOPROTECTION” (priority 2006, published 2009).
For at least one compound, name, drawing or mass did not settle the structure.

Key:
FABP4 = test: RT-Q-PCR FABP4 transcript level in monocyte-derived DCs; format: cell-based, human; details: ligand treated monocyte-derived DCs: 2.5 μM RSG, 100 nM GW347845X, 1 μM troglitazone; relative to 36B4
Description: Cell culture and ligand treatment—Monocytes (98% CD14+) were obtained from buffy coats by Ficoll gradient centrifugation and immunomagnetic cell separation using anti-CD14-conjugated microbeads (VarioMACS; Miltenyi Biotec). DCs were prepared as described previously (Szatmari, I. et al. (2004) Immunity 21, 95-106). In brief, monocytes were resuspended into six-well culture dishes at a density of 1.5×10^6 cells/ml and cultured in RPMI 1640 supplemented with 10% FBS (Invitrogen), containing 800 U/ml GM-CSF (Leucomax) and 500 U/ml IL-4 (Peprotech). Cells were cultured for 5 or 6 days (unless otherwise indicated) and the IL-4 and GM-CSF addition was repeated at day 3. Ligands or vehicle control (50% DMSO/ethanol) were added to the cell culture from the first day on. MonoMac-6 (MM6) cells were a kind gift of E. Duda (Biological Research Center, Szeged, Hungary). These cells were cultured in RPMI 1640 supplemented with 10% FBS.

ABCG2 = test: RT-Q-PCR ABCG2 transcript level in monocyte-derived DCs; format: cell-based, human; details: ligand treated monocyte-derived DCs: 2.5 μM RSG, 100 nM GW347845X, 1 μM troglitazone; relative to 36B4
Description: Cell culture and ligand treatment—Monocytes (98% CD14+) were obtained from buffy coats by Ficoll gradient centrifugation and immunomagnetic cell separation using anti-CD14-conjugated microbeads (VarioMACS; Miltenyi Biotec). […] Cells were cultured for 5 or 6 days (unless otherwise indicated) and the IL-4 and GM-CSF addition was repeated at day 3. Ligands or vehicle control (50% DMSO/ethanol) were added to the cell culture from the first day on. MonoMac-6 (MM6) cells were a kind gift of E. Duda (Biological Research Center, Szeged, Hungary).

Dendritic cells = test: Ex vivo DC maturation targeted by RSG in autologous cell transplantation example; format: cell-based, human; details: depending of the treatment regime
DCs = details: 2.5 μM RSG, mitoxantrone 48 h, MTT

Structure (SMILES) | FABP4 mRNA expression (FABP4) | ABCG2 mRNA expression (ABCG2) | Time to ABCG2 expression after treatment (Dendritic cells) | Sensitivity of PPARg ligand treated DCs to mitoxantrone (DCs)
Cc1c(C)c2c(c(C)c1O)CCC(C)(COc1ccc(CC3SC(=O)NC3=O)cc1)O2 (centres unmarked) [troglitazone] | induced | induced | – | –
CN(CCOc1ccc(CC2SC(=O)NC2=O)cc1)c1ccccn1 (centres unmarked) [rosiglitazone] | highly enhanced | – | ≤ 24 h | significantly less sensitive
